Data: PubChem BioAssay AID624297 (National Center for Advancing Translational Sciences (NCATS), 2012)
Hit rate of the full screen: of about 340,000 compounds, about 6,200 (1.8%) were called active. Inconclusive results, whose numbers are uncertain, are shown with a selection of clear calls. Calls follow the shape of the dose curve; as a rule, active = well fitted activation curve with a large enough effect; inconclusive = small, poorly fitted or top-dose-only effect; inactive = no such curve, though single readings can be large or run the other way. Potencies of inconclusive entries are doubtful fits and often do not repeat.

Assay: A quantitative high throughput screen for small molecules that induce DNA re-replication in SW480 colon adenocarcinoma cells. Also: nearly all actives have a fitted effect of over 55% in size. As to re-replication activation: % of control where 0% means no effect.
Conditions: Hoechst DNA content imaging, 48 h; re-replication activation: at 46.1 µM (top of the series) unless noted
Summary of the method: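 Hoechst fluorescence of nuclei (405 nm excitation, 500-530 nm emission) measured by plate-scanning imager after 48 hr compound exposure at 37 C; re-replication scored as increased number of nuclei with elevated intensity.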
Potency is read from the fitted curve at half-maximal effect.

| SMILES | re-replication activation | Potency |
| --- | --- | --- |
| O=C(c1cc2cc(F)ccc2[nH]1)N1CCN(c2ccc(F)cc2)CC1 | inconclusive: 26% [activator] |  |
| COc1cc(C2Nc3ccccc3C(=O)N2c2ccc(Cl)cc2)c(Cl)cc1OCC(=O)O (stereo unspecified) |  | inconclusive: 6.51 µM [activator, single point] |
| CCN1/C(=C/c2ccc3cc(C)ccc3[n+]2CC)Sc2cc(C)c(C)cc21 |  | inconclusive: 0.0116 µM [activator, full curve, poor fit] |
| COc1ccccc1OCC(=O)Nc1ccc(S(=O)(=O)N2CCOCC2)cc1 |  | inconclusive: 7.31 µM [activator, partial curve, poor fit] |
| O=C(CSc1ccc(-c2ccccn2)nn1)Nc1ccc(F)c(F)c1 |  | inactive |
| C=CCn1c(SCc2nc3ccccc3c(=O)[nH]2)nc2scc(C3CC3)c2c1=O |  | inconclusive: 29.1 µM [activator, single point] |
| CC1(C)Cc2c(sc3[nH]c(=O)n(CC(=O)NCC4CCCO4)c(=O)c23)CO1 (stereo unspecified) |  | inconclusive: 29.1 µM [activator, single point] |
| CC1(c2ccccc2)CC(C)(C)N(C(=O)C2CCCO2)c2ccccc21 (stereo unspecified) |  | inconclusive: 16.4 µM [activator, partial curve, poor fit] |
| O=C(CCCOc1ccc(Cl)cc1Cl)N1CCN(c2ccccn2)CC1 |  | inactive |
| Cc1noc(C)c1S(=O)(=O)N(Cc1ccccc1)C(C)C |  | inactive |
| COC(=O)c1sccc1NS(=O)(=O)c1ccc(OC)cc1 |  | inconclusive: 29.1 µM [activator, single point] |
| Cc1ccc(CSC2=NCCN2C(=O)C(C)Oc2ccccc2)cc1 (stereo unspecified) |  | inactive |
| COc1ccc2[nH]c(CN3CCN(CC(C)C)C(CCO)C3)c(C)c2c1 (stereo unspecified) |  | inactive |
| COc1ccc(NC(=O)c2cc(Br)ccc2Cl)c(OC)c1 |  | inactive |
| COc1cccc(NC(=O)CN(C)C(=O)c2ccccc2OCC(=O)Nc2cccc(C(F)(F)F)c2)c1 |  | inactive |
| C=CCn1c(SCC(=O)NCc2ccco2)nnc1-c1ccc2ccccc2n1 |  | inactive |
| O=C(NC(=S)NCCc1ccccc1)c1cccc(Cl)c1 |  | inactive |
| O=C(NCCO)c1cccc(Nc2nc(-c3ccccc3)c3cc(Cl)ccc3n2)c1 |  | active: 16.4 µM |
| O=C(OCC(=O)N1CCCCC1)c1cc(=O)[nH]c2ccccc12 |  | inactive |
| Cc1cccc(N2CCN(C(=O)c3c(-c4ccccc4)noc3C)CC2)c1C |  | inconclusive: 4.11 µM [activator, partial curve, poor fit] |
| COC(=O)c1ccc(NC(=O)Cc2ccc(F)cc2)cc1 |  | inconclusive: 6.51 µM [activator, single point] |
| Cc1ccsc1C(=O)N1CCCC(N(C)Cc2ccccc2)C1 (stereo unspecified) |  | inactive |
| CC(C)(C)c1ccc(-c2cc(N)n[nH]2)cc1 |  | inconclusive: 25.9 µM [activator, partial curve, poor fit] |
| O=C1C(c2ccncc2)N(CCC2=CCCCC2)C(=O)CN1C1CCCCC1 (stereo unspecified) |  | inactive |

No new results follow: 2 of the compounds above.

| SMILES | re-replication activation | Potency |
| --- | --- | --- |
| COc1cc(C2Nc3ccccc3C(=O)N2c2ccc(Cl)cc2)c(Cl)cc1OCC(=O)O (stereo unspecified) |  | inconclusive: 6.51 µM [activator, single point] |
| CCN1/C(=C/c2ccc3cc(C)ccc3[n+]2CC)Sc2cc(C)c(C)cc21 |  | inconclusive: 0.0116 µM [activator, full curve, poor fit] |

(more compounds)

| SMILES | re-replication activation | Potency |
| --- | --- | --- |
| Cc1cc2cc(CNC(=S)Nc3ccc(OC(F)(F)F)cc3)ccc2[nH]1 |  | inactive |
| CCS(=O)(=O)CCSc1nc2ccccc2o1 |  | inactive |
| Cc1ccc(/C=N/NC(=O)c2c[nH]c3ccccc23)s1 |  | inactive |
| CC1CN(C2CC(C)(C)NC(C)(C)C2)CCC1=O (stereo unspecified) |  | inactive |
| O=C(NCc1ccccc1Cl)c1ccc(Cn2cc(C(F)(F)F)ccc2=O)cc1 |  | inactive |
| COc1ccccc1N1CCN(C(=O)c2c(-c3ccccc3Cl)noc2C)CC1 |  | inconclusive: 20.6 µM [activator, single point] |
| CCCN(CCC)C(=O)/C=C/c1cccc([N+](=O)[O-])c1 |  | inconclusive: 0.58 µM [activator, full curve, poor fit] |
| O=C(c1ccc(Cl)cc1)N1N=CCC1(O)c1ccc(Cl)cc1 (stereo unspecified) |  | inconclusive: 32.6 µM [activator, partial curve, poor fit] |
| O=c1nc2sc3ccccc3n2c(=O)n1-c1cccc(Cl)c1 |  | inactive |
| NNC(=O)c1[nH]c2ccc([N+](=O)[O-])cc2c1-c1ccccc1 |  | inconclusive: 29.1 µM [activator, single point] |
| COc1cc(N2C(=O)C=CC2=O)c(OC)cc1Cl |  | inconclusive: 18.4 µM [activator, single point] |
| CC1CCN(C(=S)Nc2ccc(SC(F)F)cc2)CC1 |  | inactive |
| COc1ccc(S(=O)(=O)N2CCOCC2)cc1NC(=O)CSc1nnc(C2CC2)n1C1CC1 |  | inconclusive: 2.31 µM [activator, full curve, poor fit] |
| N#Cc1nc(COc2ccccc2F)oc1N1CCCCCC1 |  | inconclusive: 35.5 µM [activator, partial curve, poor fit] |
| CC1CCCN(S(=O)(=O)c2ccc(C(=O)Nc3nnc(-c4ccccc4Cl)o3)cc2)C1 (stereo unspecified) |  | inconclusive: 3.66 µM [activator, single point] |
| O=C(NCC1CCCC(CNC(=O)N2CCc3ccccc32)C1)N1CCc2ccccc21 (stereo unspecified) |  | inconclusive: 14.6 µM [activator, partial curve, poor fit] |
| OC[C@@H]1[C@@H](c2ccc(Cl)cc2)C(c2cccc(Cl)c2)=NN1c1ccccc1 |  | active: 2.31 µM |
| Cc1ccc(CNC(=O)CSCC(=O)O)cc1 |  | inactive |
| CCCOc1ccc(/C=C/c2[nH]c(=O)[nH]c(=O)c2[N+](=O)[O-])cc1OCC |  | inconclusive: 29.1 µM [activator, single point] |
| COc1ccccc1C(=O)NC(CCSC)C(=O)NNC(=O)c1ccccc1C (stereo unspecified) |  | inconclusive: 5.8 µM [activator, partial curve] |
| O=C(O)CCC(=O)N1CCN(c2nc(-c3ccccc3)c3cc(Br)ccc3n2)CC1 |  | inconclusive: 20.6 µM [activator, single point] |
| COc1ccc(-c2cc(C(F)(F)F)c(C#N)c(SCC(=O)Nc3ccccc3C#N)n2)cc1 |  | inconclusive: 6.51 µM [activator, partial curve, poor fit] |
| COc1cc(C(=O)NCC(c2ccco2)N2CCCC2)ccc1OCc1ccc(Cl)cc1Cl (stereo unspecified) |  | inconclusive: 29.1 µM [activator, single point] |
| COc1ccc(/C=C/C(=O)N(C)C2(C)CCS(=O)(=O)C2)cc1 (stereo unspecified) |  | active: 23.1 µM |

In a second layout: entries from further up.
COc1cc(N2C(=O)C=CC2=O)c(OC)cc1Cl
  Potency: inconclusive: 18.4 µM [activator, single point]
CC1CCN(C(=S)Nc2ccc(SC(F)F)cc2)CC1
  Potency: inactive
COc1ccc(S(=O)(=O)N2CCOCC2)cc1NC(=O)CSc1nnc(C2CC2)n1C1CC1
  Potency: inconclusive: 2.31 µM [activator, full curve, poor fit]
N#Cc1nc(COc2ccccc2F)oc1N1CCCCCC1
  Potency: inconclusive: 35.5 µM [activator, partial curve, poor fit]

Continuation:

| SMILES | re-replication activation | Potency |
| --- | --- | --- |
| O=C(NNc1ccccc1)C(CCO)C(=O)NNc1ccccc1 |  | inconclusive: 29.1 µM [activator, single point] |
| Cc1ccc(-c2cc(-c3ccccc3)nc(Cl)n2)cc1 |  | inconclusive: 32.6 µM [activator, partial curve, poor fit] |
| COc1ccc(CC(=O)OCC(=O)Nc2cccc(C(C)=O)c2)cc1OC |  | inconclusive: 0.0046 µM [activator, full curve, poor fit] |
| O=[N+]([O-])c1cccc(/C=N/Nc2cc(N3CCOCC3)ncn2)c1 |  | inactive |
| NC(=S)N/N=C/c1c(O)ccc2ccccc12 |  | inconclusive: 23.1 µM [activator, single point] |
| CC(O)CNc1nc(Cl)c(C#N)s1 (stereo unspecified) |  | inconclusive: 29.1 µM [activator, single point] |
| CC(C(=O)NCC1CCCCC1)N1CCN(S(=O)(=O)/C=C/c2ccccc2)CC1 (stereo unspecified) |  | inconclusive: 0.116 µM [activator, full curve] |
| Cc1cc(C(=O)N/N=C/c2cc(Cl)cc([N+](=O)[O-])c2O)c2ccccc2n1 |  | inconclusive: 18.4 µM [activator, single point] |
| Cc1ccccc1C(=O)N1CCN(c2ccc(NC(=O)c3cccnc3)cc2)CC1 |  | inactive |
| Cc1ccc(NS(=O)(=O)c2ccc(C(=O)N3CCCC(C(F)(F)F)C3)cc2)cc1 (stereo unspecified) |  | inconclusive: 0.0046 µM [activator, full curve, poor fit] |
| COc1ccc2nc(C)cc(SCC(=O)N/N=C/c3ccc(O)c(O)c3)c2c1 |  | inconclusive: 29.1 µM [activator, single point] |
| c1ccc2c(c1)oc1c(NCC3CCCO3)ncnc12 (stereo unspecified) |  | inactive |
| CCOCCCn1c(=N)c(S(=O)(=O)c2ccccc2)cc2c(=O)n3cc(C)ccc3nc21 |  | active: 5.8 µM |
| COCCCNC(=O)Cn1nnc(-c2ccccc2NC(=O)c2ccccc2F)n1 |  | inconclusive: 25.9 µM [activator, single point] |
| COc1ccc(C(C(=O)NCC2CCCO2)N(Cc2ccc(F)cc2)C(=O)CNC(=O)c2ccco2)cc1OC (stereo unspecified) |  | inactive |
| CC(Oc1ccc(Cl)cc1Cl)C(=O)Nc1ccc2oc(-c3ccncc3)nc2c1 (stereo unspecified) |  | inconclusive: 32.6 µM [activator, partial curve, poor fit] |
| O=c1c2[nH]c3ccc(Br)cc3c2ncn1Cc1ccncc1 |  | inconclusive: 6.51 µM [activator, single point] |
| O=C1SC(SCc2ccccc2Cl)=N/C1=C\c1ccc(C(=O)O)cc1 |  | inconclusive: 20.6 µM [activator, single point] |
| Nc1cc2c(cc1Br)[nH]c(=O)c1ccccc12 |  | inconclusive: 16.4 µM [activator, single point] |
| C/C(=N\NC(=O)c1cccc(S(=O)(=O)N2CCOCC2)c1)c1ccc(C)cc1 |  | inactive |
| COc1ccccc1/C=C/C(=O)Nc1nc(N)n(-c2ccccc2)n1 |  | inconclusive: 6.51 µM [activator, partial curve, poor fit] |
| O/N=C/c1ccc2cccc(O)c2n1 |  | inconclusive: 29.1 µM [activator, single point] |
| O=C(c1ccc(Cn2c(=S)[nH]c3ccc(Br)cc3c2=O)cc1)N1CCN(C2CCCCC2)CC1 |  | inconclusive: 18.4 µM [activator, partial curve, poor fit] |
